One molecule from PMC2848158 can be followed below.

Amino acid sequences for entries named in this document (tags omitted). A change or cut given only in a name is not applied to a line headed by its entry. Chains listed by the source or under a name are the forms on record and can include a tag or linker.
UniProt Q13761: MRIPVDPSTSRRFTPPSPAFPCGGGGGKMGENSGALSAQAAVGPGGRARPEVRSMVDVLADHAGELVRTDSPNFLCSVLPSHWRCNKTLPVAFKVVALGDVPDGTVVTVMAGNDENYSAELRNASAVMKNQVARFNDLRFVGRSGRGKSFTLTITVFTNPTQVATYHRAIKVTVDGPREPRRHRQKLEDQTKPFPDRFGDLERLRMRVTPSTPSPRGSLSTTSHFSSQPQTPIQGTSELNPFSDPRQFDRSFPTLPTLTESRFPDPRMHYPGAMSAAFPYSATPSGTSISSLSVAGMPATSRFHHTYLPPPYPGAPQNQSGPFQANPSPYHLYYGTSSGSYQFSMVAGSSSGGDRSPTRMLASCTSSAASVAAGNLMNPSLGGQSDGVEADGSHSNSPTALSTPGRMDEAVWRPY
GST-Runx1 from Homo sapiens (Q01196, form named): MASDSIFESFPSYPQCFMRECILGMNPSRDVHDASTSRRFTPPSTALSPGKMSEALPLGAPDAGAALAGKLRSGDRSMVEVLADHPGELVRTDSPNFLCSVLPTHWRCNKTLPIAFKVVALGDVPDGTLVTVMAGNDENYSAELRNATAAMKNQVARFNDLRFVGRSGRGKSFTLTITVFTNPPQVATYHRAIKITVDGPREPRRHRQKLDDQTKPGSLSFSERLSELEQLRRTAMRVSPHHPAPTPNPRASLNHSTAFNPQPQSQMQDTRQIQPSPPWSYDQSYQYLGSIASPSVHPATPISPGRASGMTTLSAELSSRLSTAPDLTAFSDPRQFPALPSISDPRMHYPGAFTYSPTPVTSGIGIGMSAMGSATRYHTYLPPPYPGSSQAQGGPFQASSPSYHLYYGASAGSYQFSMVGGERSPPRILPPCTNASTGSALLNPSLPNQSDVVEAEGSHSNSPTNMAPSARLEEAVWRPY

Results are given in words; binding and its absence hold for the method and conditions named. Binding seen in cells or lysates may run through a third protein. Some binding calls cover weakened binding; strength is not graded here.

The target of assay [1] is GST-Runx3 from Homo sapiens (Homo sapiens) (UniProt Q13761). Description: pull-down; GST-Runx fusion proteins (1.5 μg) bound to 20 μl glutathione-Sepharose beads, incubated with nuclear extracts (150 μg) of ROS 17/2.8 cells cultured with 10^-8 M 1α,25-dihydroxyvitamin D3 for 18 h; VDR detected by Western blot; only the target purified. (In general: In western blotting, separated proteins are transferred to a membrane and probed.)

Assay [2] deals with GST-Runx1 from Homo sapiens (Homo sapiens) (UniProt Q01196). Described as above.

B1: endogenous mammalian VDR obtained from nuclear extracts of immortalized rat osteoblasts (protein, UniProt P13053 1-423)
chain: MEATAASTSLPDPGDFDRNVPRICGVCGDRATGFHFNAMTCEGCKGFFRRSMKRKALFTCPFNGDCRITKDNRRHCQACRLKRCVDIGMMKEFILTDEEVQRKREMIMKRKEEEALKDSLRPKLSEEQQHIIAILLDAHHKTYDPTYADFRDFRPPVRMDGSTGSYSPRPTLSFSGNSSSSSSDLYTTSLDMMEPSGFSNLDLNGEDSDDPSVTLDLSPLSMLPHLADLVSYSIQKVIGFAKMIPGFRDLTSDDQIVLLKSSAIEVIMLRSNQSFTMDDMSWDCGSQDYKYDVTDVSKAGHTLELIEPLIKFQVGLKKLNLHEEEHVLLMAICIVSPDRPGVQDAKLVEAIQDRLSNTLQTYIRCRHPPPGSHQLYAKMIQKLADLRSLNEEHSKQYRSLSFQPENSMKLTPLVLEVFGNEIS
As for B1, the binding result in assay [1] and in assay [2] was “binds” throughout.
